Measurements reported in PubChem BioAssay AID1259405 (NCATS, 2018)
Test: 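Knock-downs that lift recombinant protein yield in hamster ovary cells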 (primary screen). Cells: Chinese hamster CHO-K1 ovary cells with stable secreted eGFP expression. Reagent: single siRNA against mouse genes, 0.8 pmol siRNA per well (2 µl of 400 nM stock). Duration: 3 days. Detection: 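Percent of the per-plate non-targeting control median for intracellular GFP per well by laser scanning cytometry and for cell viability by ATP luminescence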. Direction: GFP, % of control: higher = more GFP per well, higher productivity; viability (ATP), % of control: higher = more viable cells (more ATP). Call rule: 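a knock-down is called active if GFP reaches 120% or more of non-targeting control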.
In all, the deposit lists about 50,000 reagents; shown is a random part of them. In the full data, about 4,000 (8%) are marked active. 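Mouse siRNA library applied to hamster cells; one well for each siRNA.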 The numbers tell different reagents against one gene apart. No sequences are given here.

Ctbp2 #1: GFP, % of control = 106; viability (ATP), % of control = 96.1; call = inactive
Ctbp2 #2: GFP, % of control = 72.6; viability (ATP), % of control = 61.9; call = inactive
Ctbp2 #3: GFP, % of control = 177; viability (ATP), % of control = 154; call = active
Lsg1 #1: GFP, % of control = 116; viability (ATP), % of control = 104; call = inactive
Lsg1 #2: GFP, % of control = 68; viability (ATP), % of control = 82.5; call = inactive
Lsg1 #3: GFP, % of control = 46.3; viability (ATP), % of control = 52.1; call = inactive
Mecp2 #1: GFP, % of control = 72.5; viability (ATP), % of control = 79.7; call = inactive
Mecp2 #2: GFP, % of control = 50.6; viability (ATP), % of control = 40.3; call = inactive
Mecp2 #3: GFP, % of control = 51.2; viability (ATP), % of control = 72.9; call = inactive
Htra2 #1: GFP, % of control = 52; viability (ATP), % of control = 29.2; call = inactive
Htra2 #2: GFP, % of control = 90.3; viability (ATP), % of control = 59.9; call = inactive
Htra2 #3: GFP, % of control = 87; viability (ATP), % of control = 70; call = inactive
Myd88 #1: GFP, % of control = 82.3; viability (ATP), % of control = 96.2; call = inactive
Myd88 #2: GFP, % of control = 120; viability (ATP), % of control = 87.1; call = inactive
Sh3tc2 #1: GFP, % of control = 86.9; viability (ATP), % of control = 76.1; call = inactive
Sh3tc2 #2: GFP, % of control = 138; viability (ATP), % of control = 103; call = active
Sh3tc2 #3: GFP, % of control = 44.4; viability (ATP), % of control = 40.6; call = inactive
Enpp5 #1: GFP, % of control = 50.1; viability (ATP), % of control = 44.2; call = inactive
Enpp5 #2: GFP, % of control = 56.6; viability (ATP), % of control = 67.7; call = inactive
Hpd #1: GFP, % of control = 141; viability (ATP), % of control = 83.2; call = active
Hpd #2: GFP, % of control = 69.7; viability (ATP), % of control = 78.2; call = inactive
Hpd #3: GFP, % of control = 26.2; viability (ATP), % of control = 31.8; call = inactive
Fermt3 #1: GFP, % of control = 63; viability (ATP), % of control = 81.3; call = inactive
Fermt3 #2: GFP, % of control = 80.5; viability (ATP), % of control = 86; call = inactive
Fermt3 #3: GFP, % of control = 115; viability (ATP), % of control = 120; call = inactive
Klhl24 #1: GFP, % of control = 139; viability (ATP), % of control = 71.8; call = active
Klhl24 #2: GFP, % of control = 106; viability (ATP), % of control = 63.9; call = inactive
Klhl24 #3: GFP, % of control = 69.5; viability (ATP), % of control = 82.5; call = inactive

Laid out differently: 3 of the entries above.
Klhl24 #1
- GFP, % of control: 139
- viability (ATP), % of control: 71.8
- call: active

Klhl24 #2
- GFP, % of control: 106
- viability (ATP), % of control: 63.9
- call: inactive

Klhl24 #3
- GFP, % of control: 69.5
- viability (ATP), % of control: 82.5
- call: inactive
